# Data reported in the supplement of paper PMC8728848.
# This is one part of the list.
# B1: DCL-1 (Homo sapiens), Q8IX05 (protein)
# chain: MLRAALPALLLPLLGLAAAAVADCPSSTWIQFQDSCYIFLQEAIKVESIEDVRNQCTDHGADMISIHNEEENAFILDTLKKQWKGPDDILLGMFYDTDDASFKWFDNSNMTFDKWTDQDDDEDLVDTCAFLHIKTGEWKKGNCEVSSVEGTLCKTAIPYKRKYLSDNHILISALVIASTVILTVLGAIIWFLYKKHSDSRFTTVFSTAPQSPYNEDCVLVVGEENEYPVQFD
# Tests used:
# Assay in all cases: glycan array binding signal (z-score within array); higher = stronger binding
# Details in all cases: glycan notation: IUPAC condensed, linker removed
# [1] = target: Fuc(a1-2)Gal
# Procedure, shortened: (§1)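 Glycan array binding is given as a within-array Z-score, which can be read as non-binding when negative. The arrays, 3228 of them, came from the Consortium for Functional Glycomics database and were retained only where the protein sequence was available. Z-scores were averaged across arrays of the same protein sequence at different concentrations or buffers and across linkers.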
# [2] = target: Fuc(a1-2)Gal(b1-3)GalNAc
# Procedure, shortened: as §1
# [3] = target: Fuc(a1-2)Gal(b1-3)GalNAc(a1-3)[Fuc(a1-2)]Gal(b1-4)Glc
# Procedure, shortened: as §1
# [4] = target: Fuc(a1-2)Gal(b1-3)GalNAc(a1-3)[Fuc(a1-2)]Gal(b1-4)GlcNAc
# Procedure, shortened: as §1
# [5] = target: Fuc(a1-2)Gal(b1-3)GalNAc(b1-3)Gal
# Procedure, shortened: as §1
# [6] = target: Fuc(a1-2)Gal(b1-3)GalNAc(b1-3)Gal(a1-4)Gal(b1-4)Glc
# Procedure, shortened: as §1
# [7] = target: Fuc(a1-2)Gal(b1-3)GalNAc(b1-4)[Neu5Ac(a2-3)]Gal(b1-4)Glc
# Procedure, shortened: as §1
# [8] = target: Fuc(a1-2)Gal(b1-3)GlcNAc
# Procedure, shortened: as §1
# [9] = target: Fuc(a1-2)Gal(b1-3)GlcNAc(b1-2)Man(a1-3)[Fuc(a1-2)Gal(b1-3)GlcNAc(b1-2)Man(a1-6)]Man(b1-4)GlcNAc(b1-4)GlcNAc
# Procedure, shortened: as §1
# [10] = target: Fuc(a1-2)Gal(b1-3)GlcNAc(b1-2)Man(a1-3)[Fuc(a1-2)Gal(b1-3)GlcNAc(b1-2)Man(a1-6)]Man(b1-4)GlcNAc(b1-4)[Fuc(a1-6)]GlcNAc
# Procedure, shortened: as §1
# [11] = target: Fuc(a1-2)Gal(b1-3)GlcNAc(b1-3)Gal(b1-4)Glc
# Procedure, shortened: as §1
# [12] = target: Fuc(a1-2)Gal(b1-3)GlcNAc(b1-3)GalNAc
# Procedure, shortened: as §1
# [13] = target: Fuc(a1-2)Gal(b1-3)GlcNAc(b1-3)[Fuc(a1-3)[Gal(b1-4)]GlcNAc(b1-6)]Gal(b1-4)Glc
# Procedure, shortened: as §1
# [14] = target: Fuc(a1-2)Gal(b1-3)GlcNAc(b1-3)[Gal(b1-4)GlcNAc(b1-6)]Gal(b1-4)Glc
# Procedure, shortened: as §1
# [15] = target: Fuc(a1-2)Gal(b1-3)GlcNAc(b1-3)[Neu5Ac(a2-6)Gal(b1-4)GlcNAc(b1-6)]Gal(b1-4)Glc
# Procedure, shortened: as §1
# [16] = target: Fuc(a1-2)Gal(b1-3)[Fuc(a1-4)]GlcNAc
# Procedure, shortened: as §1
# [17] = target: Fuc(a1-2)Gal(b1-3)[Fuc(a1-4)]GlcNAc(b1-2)Man(a1-3)[Fuc(a1-2)Gal(b1-3)[Fuc(a1-4)]GlcNAc(b1-2)Man(a1-6)]Man(b1-4)GlcNAc(b1-4)GlcNAc
# Procedure, shortened: as §1
# [18] = target: Fuc(a1-2)Gal(b1-3)[Fuc(a1-4)]GlcNAc(b1-3)[Fuc(a1-3)[Gal(b1-4)]GlcNAc(b1-6)]Gal(b1-4)Glc
# Procedure, shortened: as §1
# [19] = target: Fuc(a1-2)Gal(b1-3)[Fuc(a1-4)]GlcNAc(b1-3)[Gal(b1-4)GlcNAc(b1-6)]Gal(b1-4)Glc
# Procedure, shortened: as §1
# [20] = target: Fuc(a1-2)Gal(b1-4)Glc
# Procedure, shortened: as §1
# [21] = target: Fuc(a1-2)Gal(b1-4)Glc6S
# Procedure, shortened: as §1
# [22] = target: Fuc(a1-2)Gal(b1-4)GlcNAc
# Procedure, shortened: as §1
# [23] = target: Fuc(a1-2)Gal(b1-4)GlcNAc(b1-2)Man(a1-3)[Fuc(a1-2)Gal(b1-4)GlcNAc(b1-2)Man(a1-6)]Man(b1-4)GlcNAc(b1-4)GlcNAc
# Procedure, shortened: as §1
# [24] = target: Fuc(a1-2)Gal(b1-4)GlcNAc(b1-2)Man(a1-3)[Fuc(a1-2)Gal(b1-4)GlcNAc(b1-2)Man(a1-6)]Man(b1-4)GlcNAc(b1-4)[Fuc(a1-6)]GlcNAc
# Procedure, shortened: as §1
# [25] = target: Fuc(a1-2)Gal(b1-4)GlcNAc(b1-2)[Fuc(a1-2)Gal(b1-4)GlcNAc(b1-4)]Man(a1-3)[Fuc(a1-2)Gal(b1-4)GlcNAc(b1-2)Man(a1-6)]Man(b1-4)GlcNAc(b1-4)GlcNAc
# Procedure, shortened: as §1
# [26] = target: Fuc(a1-2)Gal(b1-4)GlcNAc(b1-3)Gal(b1-4)GlcNAc
# Procedure, shortened: as §1
# [27] = target: Fuc(a1-2)Gal(b1-4)GlcNAc(b1-3)Gal(b1-4)GlcNAc(b1-3)Gal(b1-4)GlcNAc
# Procedure, shortened: as §1
# [28] = target: Fuc(a1-2)Gal(b1-4)GlcNAc(b1-3)GalNAc
# Procedure, shortened: as §1
# [29] = target: Fuc(a1-2)Gal(b1-4)GlcNAc(b1-3)[Fuc(a1-2)Gal(b1-4)GlcNAc(b1-6)]GalNAc
# Procedure, shortened: as §1
# [30] = target: Fuc(a1-2)Gal(b1-4)GlcNAc6S
# Procedure, shortened: as §1
binder,measurement,setting,value
B1,glycan array binding signal (z-score),[1],0.287
same,glycan array binding signal (z-score),[2],-0.446
same,glycan array binding signal (z-score),[3],0.327
same,glycan array binding signal (z-score),[4],-0.462
same,glycan array binding signal (z-score),[5],-0.911
same,glycan array binding signal (z-score),[6],-0.425
same,glycan array binding signal (z-score),[7],0.172
same,glycan array binding signal (z-score),[8],-0.064
same,glycan array binding signal (z-score),[9],0.687
same,glycan array binding signal (z-score),[10],-0.216
same,glycan array binding signal (z-score),[11],-0.715
same,glycan array binding signal (z-score),[12],-0.539
same,glycan array binding signal (z-score),[13],0.156
same,glycan array binding signal (z-score),[14],-0.56
same,glycan array binding signal (z-score),[15],1.28
same,glycan array binding signal (z-score),[16],-0.435
same,glycan array binding signal (z-score),[17],-0.488
same,glycan array binding signal (z-score),[18],0.041
same,glycan array binding signal (z-score),[19],-0.421
same,glycan array binding signal (z-score),[20],0.028
same,glycan array binding signal (z-score),[21],-0.559
same,glycan array binding signal (z-score),[22],0.187
same,glycan array binding signal (z-score),[23],-0.355
same,glycan array binding signal (z-score),[24],0.659
same,glycan array binding signal (z-score),[25],-0.471
same,glycan array binding signal (z-score),[26],0.928
same,glycan array binding signal (z-score),[27],0.567
same,glycan array binding signal (z-score),[28],1.21
same,glycan array binding signal (z-score),[29],0.508
same,glycan array binding signal (z-score),[30],-0.457

# Some of the entries so far, with tabs.
binder	measurement	setting	value
B1	glycan array binding signal (z-score)	[12]	-0.539
same	glycan array binding signal (z-score)	[13]	0.156
